Test results: article PMC10630337, “Transcriptional reprogramming by mutated IRF4 in lymphoma”

What was measured:
Experiment in all cases: EMSA
IRF4-WT + JUNB + BATF = conditions: EMSA: 10 mM HEPES pH 7.9, 70 mM KCl, 5 mM DTT, 1 mM EDTA, 2.5 mM MgCl2, 4% Ficoll, 0.5 mg/ml BSA, 0.1 ug/ml poly(dI-dC), 3-5 ug nuclear extract, temperature not stated, protein in a lysate after overexpression, protein details: HA,FLAG, label: 32P-dCTP Klenow end label
IRF4-C99R + JUNB + BATF = conditions: EMSA: 10 mM HEPES pH 7.9, 70 mM KCl, 5 mM DTT, 1 mM EDTA, 2.5 mM MgCl2, 4% Ficoll, 0.5 mg/ml BSA, 0.1 ug/ml poly(dI-dC), 3-5 ug nuclear extract, temperature not stated, protein in a lysate after overexpression, protein details: HA,FLAG, label: 32P-dCTP Klenow end label
IRF4-WT + JUNB + BATF3 = conditions: EMSA: 10 mM HEPES pH 7.9, 70 mM KCl, 5 mM DTT, 1 mM EDTA, 2.5 mM MgCl2, 4% Ficoll, 0.5 mg/ml BSA, 0.1 ug/ml poly(dI-dC); 3-5 ug nuclear extract; temperature not stated; protein in a lysate after overexpression; protein details: HA,FLAG; label: 32P-dCTP Klenow end label
IRF4-C99R + JUNB + BATF3 = conditions: EMSA: 10 mM HEPES pH 7.9, 70 mM KCl, 5 mM DTT, 1 mM EDTA, 2.5 mM MgCl2, 4% Ficoll, 0.5 mg/ml BSA, 0.1 ug/ml poly(dI-dC); 3-5 ug nuclear extract; temperature not stated; protein in a lysate after overexpression; protein details: HA,FLAG; label: 32P-dCTP Klenow end label
IRF4-C99R + c-JUN + BATF = conditions: EMSA: 10 mM HEPES pH 7.9, 70 mM KCl, 5 mM DTT, 1 mM EDTA, 2.5 mM MgCl2, 4% Ficoll, 0.5 mg/ml BSA, 0.1 ug/ml poly(dI-dC); 3-5 ug nuclear extract; temperature not stated; protein in a lysate after overexpression; protein details: HA,FLAG; label: 32P-dCTP Klenow end label
[1] = tested on: IRF4-C99R S104T + JUNB + BATF; conditions: EMSA: 10 mM HEPES pH 7.9, 70 mM KCl, 5 mM DTT, 1 mM EDTA, 2.5 mM MgCl2, 4% Ficoll, 0.5 mg/ml BSA, 0.1 ug/ml poly(dI-dC), temperature not stated, protein in a lysate after overexpression, protein details: HA,FLAG, label: 32P-dCTP Klenow end label
IRF4-WT + c-JUN + BATF = conditions: EMSA: 10 mM HEPES pH 7.9, 70 mM KCl, 5 mM DTT, 1 mM EDTA, 2.5 mM MgCl2, 4% Ficoll, 0.5 mg/ml BSA, 0.1 ug/ml poly(dI-dC); 3-5 ug nuclear extract; temperature not stated; protein in a lysate after overexpression; protein details: HA,FLAG; label: 32P-dCTP Klenow end label
IRF4-C99R S104T (human) = target: T1, IRF4-C99R S104T (human) (UniProt Q15306); conditions: EMSA: 10 mM HEPES pH 7.9, 70 mM KCl, 5 mM DTT, 1 mM EDTA, 2.5 mM MgCl2, 4% Ficoll, 0.5 mg/ml BSA, 0.1 ug/ml poly(dI-dC); 3-5 ug nuclear extract; temperature not stated; protein in a lysate after overexpression; residues 1-451; protein details: HA; label: 32P-dCTP Klenow end label
T1 sequence (looked up): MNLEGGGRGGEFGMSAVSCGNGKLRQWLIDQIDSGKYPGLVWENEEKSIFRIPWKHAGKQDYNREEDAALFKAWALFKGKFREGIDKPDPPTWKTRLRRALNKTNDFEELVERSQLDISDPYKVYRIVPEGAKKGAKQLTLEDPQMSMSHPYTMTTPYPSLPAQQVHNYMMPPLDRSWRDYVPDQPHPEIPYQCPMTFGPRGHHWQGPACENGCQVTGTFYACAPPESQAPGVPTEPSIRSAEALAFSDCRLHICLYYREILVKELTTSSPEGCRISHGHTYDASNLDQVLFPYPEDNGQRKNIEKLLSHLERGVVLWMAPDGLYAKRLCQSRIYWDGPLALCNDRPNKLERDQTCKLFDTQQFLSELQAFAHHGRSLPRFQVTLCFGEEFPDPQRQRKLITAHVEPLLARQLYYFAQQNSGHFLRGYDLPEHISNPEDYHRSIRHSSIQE

IRF4-WT (human) = target: T2, IRF4-WT (human) (UniProt Q15306); conditions: EMSA: 10 mM HEPES pH 7.9, 70 mM KCl, 5 mM DTT, 1 mM EDTA, 2.5 mM MgCl2, 4% Ficoll, 0.5 mg/ml BSA, 0.1 ug/ml poly(dI-dC); 3-5 ug nuclear extract; temperature not stated; protein in a lysate after overexpression; residues 1-451; protein details: HA; label: 32P-dCTP Klenow end label
T2 sequence (looked up): T1 sequence (looked up) with R99C, T104S

IRF4-C99R (human) = target: T3, IRF4-C99R (human) (UniProt Q15306); conditions: EMSA: 10 mM HEPES pH 7.9, 70 mM KCl, 5 mM DTT, 1 mM EDTA, 2.5 mM MgCl2, 4% Ficoll, 0.5 mg/ml BSA, 0.1 ug/ml poly(dI-dC); 3-5 ug nuclear extract; temperature not stated; protein in a lysate after overexpression; residues 1-451; protein details: HA; label: 32P-dCTP Klenow end label
T3 sequence (looked up): T1 sequence (looked up) with T104S

[2] = tested on: IRF4-WT DBD + JUNB DBD + BATF DBD; conditions: C99R much stronger, short or long probe not certain; EMSA: 10 mM HEPES pH 7.9, 70 mM KCl, 5 mM DTT, 1 mM EDTA, 2.5 mM MgCl2, 4% Ficoll, 0.5 mg/ml BSA, 0.1 ug/ml poly(dI-dC); 3-5 ug nuclear extract; temperature not stated; recombinant protein; label: 32P-dCTP Klenow end label

Sequence	binding result (IRF4-WT + JUNB + BATF)	binding result (IRF4-C99R + JUNB + BATF)	binding result (IRF4-C99R + c-JUN + BATF)	binding result (IRF4-WT + c-JUN + BATF)	also measured
AGCTAATGCAGGAATGACTCACTTG / AGCTCAAGTGAGTCATTCCTGCATT [GATA3Peak_3]	no binding	binds			
AGCTACTGAATGAGTCAGAGAGGCCCAAA / AGCTTTTGGGCCTCTCTGACTCATTCAGT [GATA3Peak_1]	no binding	binds			binding result (IRF4-WT + JUNB + BATF3): no binding; binding result (IRF4-C99R + JUNB + BATF3): binds
AGCTAGTCATAAATGAGTCATGGC / AGCTGCCATGACTCATTTATGACT [GATA3Peak_2]	no binding	binds			binding result (IRF4-WT + JUNB + BATF3): no binding; binding result (IRF4-C99R + JUNB + BATF3): binds
AGCTCTTGCCTTAGAGGTTTCGGGATGACTAATACTGTA / AGCTTACAGTATTAGTCATCCCGAAACCTCTAAGGCAAG [AICE1 (Ctla4)]	binds		no binding	binds	binding result ([1]; 3-5 ug nuclear extract): no binding; binding result (IRF4-C99R + JUNB + BATF; complete loss of IRF4 complex): no binding
AGCTGCTTTTGCTTTCACTTTGACTGGCCTGGAGACAATGAGTT / AGCTAACTCATTGTCTCCAGGCCAGTCAAAGTGAAAGCAAAAGC [AICE1 (IL12Rb)]			no binding		binding result ([1]; 3-5 ug nuclear extract): no binding; binding result (IRF4-WT + JUNB + BATF; weak-affinity motif): binds; binding result (IRF4-C99R + JUNB + BATF; complete loss of IRF4 complex): no binding
AGCTGGGAAAGGGAAACCGAAACTG / AGCTCAGTTTCGGTTTCCCTTTCCC [ISRE (ISG15)]					binding result (IRF4-C99R S104T (human)): no binding; binding result (IRF4-WT (human)): binds; binding result (IRF4-C99R (human)): no binding
AGCTTAGCGCAGAAATGAGTCAGAGATCAAAGAAG / AGCTCTTCTTTGATCTCTGACTCATTTCTGCGCTA [AICE2-4C (Bcl11b)]	no binding		binds	no binding	binding result (IRF4-C99R + JUNB + BATF; strong): binds
AGCTTAGTGCAGAAATGAGTCAGAGATCAAAGAAG / AGCTCTTCTTTGATCTCTGACTCATTTCTGCACTA [AICE2 (Bcl11b)]	binds		binds	binds	binding result ([1]; similar to C99R, 3-5 ug nuclear …): binds; binding result [2]: binds more weakly; binding result (IRF4-C99R + JUNB + BATF; enhanced vs WT): binds
AGCTTAGTGCATTTCTGAGTCAGAGATCAAAGAAG / AGCTCTTCTTTGATCTCTGACTCAGAAATGCACTA [AICE2FLIP (AICE2 5'TTTC)]	no binding	binds			
AGTGCATACATGAGTCAGAGATC / AGGATCTCTGACTCATGTATGCA [AICE2 (Bcl11b) short, IRF motif tAcA]					binding result (IRF4-C99R + JUNB + BATF; complete loss of IRF4 composite complex): no binding

Changes are numbered by the printed parent chain. For some assays here: The comparison behind a weaker result is the experiment's own reference, which may not be listed here. For some assays here: Results from cells or extracts need not show a direct contact. For some assays here: Negatives hold for the conditions tested. For some assays here: Tags and fusion partners may be left off the protein sequences shown. For some assays here: For at least one entry, the source does not settle the construct or the ends of the probe. For some assays here: At least one verdict was read from the data and is not stated in words by the source.
